Measurements taken from patent US20250019438A1 (AstraZeneca / MedImmune, published 2025).
These are yes or no findings as the source states them, for the method shown. Some binding calls cover weakened binding; strength is not graded here.

Sequences of proteins named here, by UniProt entry; tags and fusion partners are left off. A change or cut given only in a name is not applied to a line headed by its entry.
UniProt Q95LI5: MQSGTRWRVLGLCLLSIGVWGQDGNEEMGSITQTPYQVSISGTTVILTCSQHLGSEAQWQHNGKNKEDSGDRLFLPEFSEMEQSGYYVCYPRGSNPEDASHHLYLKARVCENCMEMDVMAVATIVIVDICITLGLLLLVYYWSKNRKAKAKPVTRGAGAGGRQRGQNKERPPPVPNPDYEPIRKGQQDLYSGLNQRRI

Experiments:
[1] = biological target: T1, Cynomolgus monkey CD3 on HSC-F cells (cynomolgus monkey, UniProt Q95LI5 22-198; Q95LI8 22-171; Q95LI7 23-181); test: flow cytometry on HSC-F cells
T1 construct: whole, on cells; CD3 complex; also called cyCD3+; cynomolgus CD3+ cells

[2] = biological target: T1, Cynomolgus monkey CD3 on HSC-F cells; test: flow cytometry on HSC-F cells (cyCD3++), detection with Alexa Fluor 647 goat F(ab')2 anti-human IgG Fcγ
[3] = biological target: T1, Cynomolgus monkey CD3 on HSC-F cells; test: flow cytometry on HSC-F cells (cyCD3+), detection with Alexa Fluor 647 goat F(ab')2 anti-human IgG Fcγ

Measured: binding

B1: AZ Vκ+AZ VH IgG1-TM (antibody, V domains shown)
VH: QVQLVESGGGVVQPGRSLRLSCAASGFTFTKAWMHWVRQAPGKQLEWVAQIKDKSNSYATYYADSVKGRFTISRDDSKNTLYLQMNSLRAEDTAVYYCRGVYYALSPFDYWGQGTLVTVSS
VL: DIVMTQTPLSLSVTPGQPASISCKSSQSLVHNNANTYLSWYLQKPGQSPQSLIYKVSNRFSGVPDRFSGSGSGTDFTLKISRVEAEDVGVYYCGQGTQYPFTFGSGTKVEIK
notes: also called parental AZ Vκ+AZ VH IgG1-TM; parental anti-CD3 antibody
binds: all assays above
